System: HIF-2α transcriptional activity
Assay: Hypoxia-responsive element-driven luciferase (HRE-Luc) screen
Type: cell-based, human
Details: 786-0 HRE-Luc cells, 24 h; data of FIG. 1
Experimental: Screens for inhibitory activity of compounds described herein were performed using 786-0 ccRCC cells that stably express HRE-Luc: 5 copies of the hypoxia-responsive element (HRE) fused to the pGL3 luciferase reporter (Promega Corp, Madison WI). 786-0 cells are pVHL deficient and thus constitutively express HIF-2α independently of cellular oxygen tension. Since 786-0 cells lack HIF-1α, HRE-driven luciferase activity is primarily HIF-2α driven, and has been previously validated. Cells were maintained at log phase growth in […] (DMEM) with 10% FBS in a humidified incubator at 37° C. with 5% CO2. For screening assays, cells were seeded at a density of 4,000 cells in 50 μl of complete media/well in quadruplicate wells/point in a 96-well plate. After 24 h, 50 μl of a 2× concentration of test compound was added to each well. Compounds were diluted from a 5-10 mM stock in DMSO and final concentrations of DMSO in each well in controls and treated wells were kept constant at ≤0.6% DMSO. After 24 h treatment, luciferase activity was measured using the Steady-Glo Luciferase assay system (Promega Corp) according to the manufacturer's protocol. Cell viability was measured in quadruplicate parallel wells using resazurin as recommended by the manufacturer (R&D systems, Minneapolis, MN). Data for luciferase and resazurin were normalized to DMSO treated controls (defining 100%) and wells containing assay reagent but no cells (defining 0%) and graphed using the log inhibitor versus normalized response option in Graphpad Prism 9.3.1 software. Representative data determined using Steady-Glo luciferase and resazurin are shown in FIGS. 1A and 1B respectively, with error bars showing SD. Filled diamonds, empty squares and empty triangles indicate treatment with 3, 8 and 22 respectively with results for HRE-Luc shown in FIG. 1A.

Compound	ratio of resazurin IC50 to HRE-Luc IC50
COc1nccc2[nH]c(Nc3nnc(-c4ccc(F)cc4)o3)nc12 [Compound 3, 5-(4-Fluorophenyl)-N-(4-methoxy-1H-imidazo[4,5-c]pyridin-2-yl)-1,3,4-oxadiazol-2-amine]	39.05
Fc1ccc(-c2nnc(Nc3nc4ncccc4o3)o2)cc1 [Compound 8, N-(5-(4-Fluorophenyl)-1,3,4-oxadiazol-2-yl)oxazolo[4,5-b]pyridin-2-amine]	3.2
COc1ccc(-c2nnc(Nc3nc4c(OC)nccc4[nH]3)o2)cc1 [Compound 22, N-(4-methoxy-1H-imidazo[4,5-c]73yridine-2-yl)-5-(4-methoxyphenyl)-1,3,4-oxadiazol-2-amine]	2.75

— patent publication US20250346588A1, “IMIDAZOPYRIDINE AND OXAZOLOPYRIDINE DERIVATIVES AND ANALOGS THEREOF, METHODS OF PREPARATION THEREOF, METHODS OF HIF-1/2A PATHWAY INHIBITION, AND INDUCTION OF FERROPTOSIS” (KUDA THERAPEUTICS, INC., priority 2022, published 2025)
